Assay [1] addresses recombinant human PSMA (prostate-specific membrane antigen), biotin-tagged (human) (UniProt Q04609). The assay can be described thus: ELISA on plates coated with recombinant PSMA, two-fold dilution series, goat anti-human-HRP and TMB.
Assay [2] shares this target. The assay can be described thus: ELISA on plates coated with recombinant PSMA (biotin-tagged, captured on streptavidin), two-fold dilution series, goat anti-human-HRP and TMB.

Chains of the proteins cited; added tags and fusions are not shown. Lines headed by an entry give the natural chain unless they say otherwise; changes in a name come on top.
UniProt Q04609: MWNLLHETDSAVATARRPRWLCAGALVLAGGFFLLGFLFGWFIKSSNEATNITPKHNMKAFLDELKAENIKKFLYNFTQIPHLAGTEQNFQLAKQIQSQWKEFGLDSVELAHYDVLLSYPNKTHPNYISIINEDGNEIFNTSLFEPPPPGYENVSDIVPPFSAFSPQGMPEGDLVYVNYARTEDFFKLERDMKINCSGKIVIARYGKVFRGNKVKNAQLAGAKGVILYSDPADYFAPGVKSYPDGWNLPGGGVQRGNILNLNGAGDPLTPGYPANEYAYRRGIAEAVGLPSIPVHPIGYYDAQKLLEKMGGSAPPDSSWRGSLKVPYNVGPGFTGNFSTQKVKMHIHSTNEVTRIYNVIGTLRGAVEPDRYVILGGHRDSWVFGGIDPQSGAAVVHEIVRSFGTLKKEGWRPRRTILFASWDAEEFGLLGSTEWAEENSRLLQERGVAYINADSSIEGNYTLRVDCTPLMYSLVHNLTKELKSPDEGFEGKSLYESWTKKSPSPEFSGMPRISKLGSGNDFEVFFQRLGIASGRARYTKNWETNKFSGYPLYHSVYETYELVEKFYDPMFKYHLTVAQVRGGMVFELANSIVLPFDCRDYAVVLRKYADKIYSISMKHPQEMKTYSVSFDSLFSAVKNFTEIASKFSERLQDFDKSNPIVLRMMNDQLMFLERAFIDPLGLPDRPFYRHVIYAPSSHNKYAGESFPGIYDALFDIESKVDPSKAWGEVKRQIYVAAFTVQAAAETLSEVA

No constants are given. Whether binding was seen depends on the method and setting. Some entries that bind do so weakly or less than the wild type.

B1: 5-5D3-IgG1 (antibody, V domains shown)
VH: QVQLVQSGPEVKKPGASVRLSCKASGYAFNTSWMNWVRQAPGQGLEWIGRIYPGDGDTNYNGKFKGKATMTADKSTNTAYMELRSLRSDDTAVYYCGRGEWYLYYFDYWGQGTLVTVSS
VL: DIQMTQSPSSVSASVGDRVTISCSASQGINNFLTWYQQKLGKALQLLIYYTSSLHSGVPSRFSGSGSGTDYTLTISSLQPEDFATYYCQQYSNLPFTFGPGTKVDIK
On to B1, for which the binding result in assay [1] is given as “binds”.

B2: 5-5D3-hFab (Fab, V domains shown)
VH: QVQLVQSGPEVKKPGASVRLSCKASGYAFNTSWMNWVRQAPGQGLEWIGRIYPGDGDTNYNGKFKGKATMTADKSTNTAYMELRSLRSDDTAVYYCGRGEWYLYYFDYWGQGTLVTVSS
VL: DIQMTQSPSSVSASVGDRVTISCSASQGINNFLTWYQQKLGKALQLLIYYTSSLHSGVPSRFSGSGSGTDYTLTISSLQPEDFATYYCQQYSNLPFTFGPGTKVDIK
Consider B2, for which the binding entry in assay [2] is “binds”.

The record behind these values is patent US20250282890A1.
